The target in assay [1] is T1, GST-TIA1 (T-cell intracellular antigen 1) (UniProt P31483).
T1 sequence: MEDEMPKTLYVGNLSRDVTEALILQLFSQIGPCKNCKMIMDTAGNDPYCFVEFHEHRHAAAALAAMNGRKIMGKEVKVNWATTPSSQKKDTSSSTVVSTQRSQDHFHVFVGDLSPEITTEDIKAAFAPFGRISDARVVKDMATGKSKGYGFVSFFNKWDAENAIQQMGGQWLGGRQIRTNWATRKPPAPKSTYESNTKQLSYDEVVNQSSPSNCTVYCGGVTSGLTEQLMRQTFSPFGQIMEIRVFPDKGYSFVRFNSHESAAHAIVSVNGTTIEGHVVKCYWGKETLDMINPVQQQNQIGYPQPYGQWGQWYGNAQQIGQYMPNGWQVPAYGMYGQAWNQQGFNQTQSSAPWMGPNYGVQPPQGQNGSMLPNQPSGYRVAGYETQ
Briefly: pull-down.

For assay [2], the target named is T2, Flag-TIA1 (HEK293T) (UniProt P31483).
T2 sequence: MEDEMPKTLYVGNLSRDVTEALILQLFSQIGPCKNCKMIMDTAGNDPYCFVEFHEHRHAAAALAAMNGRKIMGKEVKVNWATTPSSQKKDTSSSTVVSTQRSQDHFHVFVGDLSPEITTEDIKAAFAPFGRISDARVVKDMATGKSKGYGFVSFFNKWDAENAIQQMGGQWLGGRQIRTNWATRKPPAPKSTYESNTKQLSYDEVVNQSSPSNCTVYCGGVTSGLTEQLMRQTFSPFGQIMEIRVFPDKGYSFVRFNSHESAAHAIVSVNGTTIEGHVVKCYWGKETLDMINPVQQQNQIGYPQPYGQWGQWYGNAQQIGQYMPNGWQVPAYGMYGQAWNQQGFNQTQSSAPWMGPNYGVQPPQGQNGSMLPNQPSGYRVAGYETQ
The assay is described as follows: co-IP.

Assay [3] deals with T3, HA-TIA1 (HEK293T) (UniProt P31483).
T3 sequence: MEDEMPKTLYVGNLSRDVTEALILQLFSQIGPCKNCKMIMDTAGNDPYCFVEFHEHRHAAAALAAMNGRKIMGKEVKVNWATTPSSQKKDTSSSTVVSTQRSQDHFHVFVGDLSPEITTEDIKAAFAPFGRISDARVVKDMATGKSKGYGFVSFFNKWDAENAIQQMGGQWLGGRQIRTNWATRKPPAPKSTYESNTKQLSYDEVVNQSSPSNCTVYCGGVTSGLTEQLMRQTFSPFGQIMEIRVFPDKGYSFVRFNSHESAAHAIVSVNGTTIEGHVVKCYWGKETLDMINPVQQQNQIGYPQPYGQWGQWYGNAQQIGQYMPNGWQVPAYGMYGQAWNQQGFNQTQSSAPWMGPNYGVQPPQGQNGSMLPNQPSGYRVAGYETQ
Briefly: co-IP.

These are yes or no findings as the source states them, for the method shown. Binding seen in cells or lysates may run through a third protein. Some entries that bind do so weakly or less than the wild type. Tags and fused reporters may be left off the sequences shown.

The results in this text go back to article doi:10.1101/2025.01.16.633295.

B1: Annexin A7 (ANXA7), endogenous, rat (protein, UniProt Q6IRJ7 1-485)
chain: MSYPGYPPTGYPPFPGYPPAGQESSFPTSGQYPYPSGFPPMGGGAYPPAPSGGYPGAGGYPSPGGYPAPGGYPGTLNPGGPPSYPGGQGFGAPPGGAGFSGYPQPPAQSYGGGPAQVPVPGGFPGGQMPSQYPGGQSPYPGQIDTESFSSYPAFSPVSLDYSSDPAAMTQGTQGTIRPASNFDAMRDAEILRKAMKGFGTDEQAIVDVVSNRSNDQRQQIKAAFKTMYGKDLIKDLKSELSGNMEELILALFMPPTYYDAWSLRKAIQGAGTQERVLIEILCTRTNQEIRDIVRCYQLEFGRELERDIRSDTSGHFERLLVSMCQGNRDESPSINHQMAQEDAQRLYQAGEGRLGTDESCFNMILATRSFPQLRATMEAYSRMANRDLLSSVSREFSGYVESGLKTILQCALNRPAFFAERLYYSMKGAGTDDSTLVRIVVTRSEIDLVQIKQMFTQMYQKTLSTMIASDTSGDYRKLLLAIVGQ
On to B1, for which the binding entry in assay [1] is “binds”.

B2: Myc-ANXA7 (HEK293T) (protein, UniProt Q6IRJ7 1-485)
chain: MSYPGYPPTGYPPFPGYPPAGQESSFPTSGQYPYPSGFPPMGGGAYPPAPSGGYPGAGGYPSPGGYPAPGGYPGTLNPGGPPSYPGGQGFGAPPGGAGFSGYPQPPAQSYGGGPAQVPVPGGFPGGQMPSQYPGGQSPYPGQIDTESFSSYPAFSPVSLDYSSDPAAMTQGTQGTIRPASNFDAMRDAEILRKAMKGFGTDEQAIVDVVSNRSNDQRQQIKAAFKTMYGKDLIKDLKSELSGNMEELILALFMPPTYYDAWSLRKAIQGAGTQERVLIEILCTRTNQEIRDIVRCYQLEFGRELERDIRSDTSGHFERLLVSMCQGNRDESPSINHQMAQEDAQRLYQAGEGRLGTDESCFNMILATRSFPQLRATMEAYSRMANRDLLSSVSREFSGYVESGLKTILQCALNRPAFFAERLYYSMKGAGTDDSTLVRIVVTRSEIDLVQIKQMFTQMYQKTLSTMIASDTSGDYRKLLLAIVGQ
As to B2, the binding result in assay [2] and in assay [3] was “binds” each time.
